Test results as given in patent publication US20150368343A1.

Experiments:
Test in all cases: flow cytometry, 293T transfectants, 2 mM CaCl2
[1] = molecular target: huCDH19(1-43)::FLAG::huCDH19(44-141)::ckCDH19(142-776) (human/chicken chimera)
[2] = molecular target: rhCDH19(1-43)::FLAG::rhCDH19(44-141)::caCDH19(141-770) (rhesus macaque/dog chimera)
[3] = molecular target: rhCDH19(1-43)::FLAG::rhCDH19(44-772) (rhesus macaque)
[4] = molecular target: ckCDH19(1-43)::FLAG::ckCDH19(44-249)::huCDH19(250-364)::ckCDH19(365-776) (human/chicken chimera)
[5] = molecular target: muCDH19(44-323)::raCDH19(324-327)::muCDH19(328-770), FLAG-tagged (rat/mouse chimera)
[6] = molecular target: muCDH19(44-770)::huCDH19(271), FLAG-tagged (human/mouse chimera)
[7] = molecular target: raCDH19(1-43)::FLAG::raCDH19(44-770) (rat)

Row | binding [1] | binding [2] | binding [3] | binding [4] | binding [5] | binding [6] | binding [7] | Binder
1 | binds | binds | binds | – | – | – | – | hu anti-<huCDH19> 4A9, huIgG1z / huLLC-C1 (Ab ID 13589) (antibody, V domains shown) VH: QVQLQESGPGLVKPSETLSLTCTVSGGSISGYYWSWIRQPPGKGLEWFAYFSYSGSTNYNPSLKSRVTLSVDTSKNQFSLKLSSVTAADTAVYYCARNWAFHFDFWGQGTLVTVSS VL: QSVLTQPPSVSGAPGQRVTISCTGSSSNIGTGYAVHWYQQFPGTAPKLLIYGNNNRPSGVPDRFSGSKSGTSASLAITGLQAEDEADYYCQSYDSRLSGWVFGGGTKLTVLG
2 | – | – | binds | binds | binds | binds | binds | anti-CDH19 antibody 2G6 (Ab ID 13588) (antibody, human IgG1, lambda, V domains shown) VH: QVQLVESGGGVVQPGRSLRLSCAASGFTFSSYGMHWVRQAPGKGLEWVAFIWYDGSNKYYADSVKDRFTISRDNSKNTLYLQMKSLRAEDTAVYYCARRAGIIGTIGYYYGMDVWGQGTTVTVSS VL: SYELTQPPSVSVSPGQTASITCSGDRLGEKYTCWYQQRPGQSPLLVIYQDTKRPSGIPERFSGSNSGNTATLTISGTQAMDEADYYCQAWDSSTVVFGGGTKLTVLG
3 | – | – | binds | – | – | – | – | anti-CDH19 antibody 4A2 (Ab ID 13592) (antibody, human IgG1, kappa, V domains shown) VH: QVQLQESGPGLVKPSQTLSLTCTVSGGSISSSGYYWSWIRQHPGKGLEWIGYIYYTGSAYYNPSLKSRVTISVDTSKNQFSLKLSSVTAADTAVYYCARDGSSGWYFQYWGQGTLVTVSS VL: EIVLTQSPGTLSLSPGERATLSCRASRNISSSYLAWYQQKPGQAPRLLIYGPSSRATGIPDRFSGSGSGTDFTLTISRLEPEDFTVYYCQQYGSSFTFGPGTKVDIKR

These are yes or no findings as the source states them, for the method shown. Binding can be weak; no strength is given.
